Test results reported in PMC6327983, “Discovery of cyanopyridine scaffold as novel indoleamine-2,3-dioxygenase 1 (IDO1) inhibitors through virtual screening and preliminary hit optimisation” (Journal of Enzyme Inhibition and Medicinal Chemistry, 2019).

Assay: Assay interference check at 480 nm with kynurenine, without IDO1 protein
Conditions: absorbance at 480 nm, p-DMAB, different kynurenine concentrations, no IDO1

**Q.** Which “Interference in the signal of biological assay” value does the source give for `N#Cc1ccc(C(F)(F)F)nc1SCC(=O)Nc1ccc(F)c(Cl)c1` [LBJ-10, N-(3-chloro-4-fluorophenyl)-2-((3-cyano-6-(trifluoromethyl)pyridin-2-yl)thio) acetamide] here?
**A.** no interference

**Q.** With `CC(C)c1ccc(C#N)c(SCC(=O)Nc2ccc(F)cc2)n1` [LVS-019] as the compound, how does the “Interference in the signal of biological assay” value read?
**A.** no interference
